PubChem BioAssay AID504791 | Drosophila RNAi Screening Center, 2011
Screen: 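Genes of the fly required for silencing by miRNA, siRNA or endo-siRNA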 (primary screen). Cells: Drosophila S2-derived reporter cells. Reagents: long dsRNA against Drosophila genes, about 150-250 ng dsRNA per well (siRNA assay); about 80-120 ng (miRNA assay). Duration: about 5 days (siRNA assay); about 4 days (miRNA assay). Treatment: copper sulfate induction of reporters: 25 µM (siRNA assay); 200 mM stated (miRNA assay), 1-2 days before reading. Read-out: 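Per-well ratio of Renilla over firefly light, expressed relative to that plate's average ratio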. Reading the numbers: siRNA reporter hit score: higher = 3 marks a strong hit with raised ratio; -3 a strong hit with lowered ratio. Rule for the call: 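a well was a first-pass pick when its plate-scaled ratio rose above 1.5 (siRNA assay) or 1.6 (miRNA assay), or dropped below 0.6; a gene counted only if two separate dsRNAs agreed on retest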.
In all, the deposit lists about 23,000 reagents; shown is an unselected part of those with a known target gene and a result. Of all reagents, 199 (0.86%) are marked active. 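Plate-scaled ratios behind the calls are not deposited; printed light signals are raw; many rows marked increased or decreased are still called inactive.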 Entries without a mark were called inactive. A plus sign joins genes that one reagent is predicted to hit.

| predicted target | DRSC id | siRNA reporter hit score | miRNA reporter change | stable assay Renilla, run 1 (luminescence) | stable assay firefly, run 1 (luminescence) |
| --- | --- | --- | --- | --- | --- |
| Obp99b (Odorant-binding protein 99b) | DRSC16264 | – | – | 6722 | 3.84e5 |
| CG33500 | DRSC09115 | – | – | 4047 | 3.29e5 |
| CG14537 | DRSC02395 | – | – | 6538 | 3.35e5 |
| UBL3 (Ubiquitin like 3) | DRSC20298 | – | – | 5671 | 3.78e5 |
| UBL3 (Ubiquitin like 3) | DRSC23292 | – | – | 3332 | 3.57e5 |
| Mnr (Membrane-bound Notch regulator) | DRSC20549 | – | – | 6686 | 4.07e5 |
| Mnr (Membrane-bound Notch regulator) | DRSC20550 | – | – | 5234 | 2.96e5 |
| Mnr (Membrane-bound Notch regulator) | DRSC22441 | – | – | 4119 | 4.46e5 |
| Cyp6a13 (Cytochrome P450 6a13) | DRSC07375 | – | – | 7665 | 4.69e5 |
| CG6071 | DRSC10579 | – | – | 5812 | 4.27e5 |
| CG14011 | DRSC02343 | – | – | 7362 | 3.96e5 |

Entries listed so far whose gene name begins with U or u:
| predicted target | DRSC id | siRNA reporter hit score | miRNA reporter change | stable assay Renilla, run 1 (luminescence) | stable assay firefly, run 1 (luminescence) |
| --- | --- | --- | --- | --- | --- |
| UBL3 (Ubiquitin like 3) | DRSC20298 | – | – | 5671 | 3.78e5 |
| UBL3 (Ubiquitin like 3) | DRSC23292 | – | – | 3332 | 3.57e5 |

The results go on:
| predicted target | DRSC id | siRNA reporter hit score | miRNA reporter change | stable assay Renilla, run 1 (luminescence) | stable assay firefly, run 1 (luminescence) |
| --- | --- | --- | --- | --- | --- |
| CG7768 | DRSC10914 | – | – | 8374 | 2.48e5 |
| Vta1 (Vesicle trafficking 1) | DRSC08604 | – | – | 4759 | 3.51e5 |
| Vta1 (Vesicle trafficking 1) | DRSC22848 | – | – | 5332 | 5.36e5 |
| Sf3b1 (Splicing factor 3b subunit 1) | DRSC00535 | 3 (active) | reporter ratio lowered past the hit cutoff | 7751 | 5.66e5 |
| CG17193 | DRSC15187 | – | – | 7300 | 5.25e5 |
| Trs31 (TRAPP subunit 31) | DRSC05975 | – | – | 7107 | 3.07e5 |
| soti (scotti) | DRSC16432 | – | – | 8970 | 5.90e5 |
| Vps50 (Vacuolar protein sorting 50) | DRSC06910 | – | – | 10030 | 3.32e5 |
| CG4860 | DRSC15664 | – | – | 5295 | 3.47e5 |
| CG4860 | DRSC21755 | – | – | 8755 | 4.49e5 |
| Cpr11B (Cuticular protein 11B) | DRSC19859 | – | – | 6963 | 3.00e5 |
| Ilk (Integrin linked kinase) | DRSC11868 | – | – | 4668 | 4.74e5 |
| Myo61F (Myosin 61F) | DRSC22144 | – | – | 9395 | 5.58e5 |
| pns (pinstripe) | DRSC08598 | – | – | 6054 | 2.89e5 |
| Kdm2 (Lysine demethylase 2) | DRSC14286 | – | – | 11474 | 6.06e5 |
| ort (ora transientless) | DRSC16240 | – | – | 7914 | 3.31e5 |
| CG4462 | DRSC15583 | – | – | 8890 | 3.07e5 |
| Nlg1 (Neuroligin 1) | DRSC12485 | – | – | 5786 | 3.46e5 |
| Nlg1 (Neuroligin 1) | DRSC12532 | – | – | 6022 | 3.51e5 |
| Nlg1 (Neuroligin 1) | DRSC12533 | – | – | 6502 | 4.76e5 |
| Nlg1 (Neuroligin 1) | DRSC12539 | – | – | 6424 | 3.26e5 |
| RabGGTb (Rab geranylgeranyltransferase subunit beta) | DRSC00804 | – | – | 12568 | 5.04e5 |
| Xport-A + Xport-B | DRSC15586 | – | – | 8695 | 3.33e5 |
